Data as given in patent US12351591B2, “KRas inhibitors” (ELI LILLY AND COMPANY, priority 2022, dated 2025).
Some results were stated once for a whole list of compounds, not compound by compound.

Each compound was assayed against T1, KRas wild-type (Homo sapiens, UniProt P01116) (assay: MKN-45 Cellular Active RAS GTPase ELISA (KRas Wild-type)). Conditions: PANC-1 versus MKN-45 Cellular Active RAS GTPase ELISA.
T1 construct: host or cells: MKN-45
Assay type: cell-based

SMILES | selective inhibition preference for KRas G12D mutant over KRas wild-type
N#Cc1c(N)sc2ccc(F)c(-c3c4c(c5c(N6C7CNCC6C7)nc(OC[C@@]67CCCN6C[C@H](F)C7)nc5c3F)COC4)c12 [Example 58, 2-Amino-4-[1-(3,6-diazabicyclo[3.1.1]heptan-6-yl)-5-fluoro-3-[[(2R,8S)-2-fluoro-1,2,3,5,6,7-hexahydropyrrolizin-8-yl]methoxy]-7,9-dihydrofuro[3,4-f]quinazolin-6-yl]-5-fluoro-benzothiophene-3-carbonitrile] | greater than 10 fold
C[C@@H](O)CN1CC2CCC(C1)N2c1nc(OC[C@@H]2CCN2C)nc2c(F)c(-c3c(F)ccc4sc(N)c(C#N)c34)c3c(c12)COC3 (single isomer, unassigned) [Example 179] | greater than 10 fold
CN1CCC[C@H]1COc1nc(N2C3CCC2CN(CCCO)C3)c2c3c(c(-c4c(F)ccc5sc(N)c(C#N)c45)c(F)c2n1)COC3 (single isomer, unassigned) [Example 138] | greater than 10 fold
N#Cc1c(N)sc2ccc(F)c(-c3c4c(c5c(N6C7CCC6CN(CCCO)C7)nc(OC[C@@]67CCCN6C[C@H](F)C7)nc5c3F)COC4)c12 (single isomer, unassigned) [Example 107] | greater than 10 fold
C[C@@H](O)CN1CC2CCC(C1)N2c1nc(OC[C@@]23CCCN2C[C@H](F)C3)nc2c(F)c(-c3cccc4sc(N)c(C#N)c34)c3c(c12)COC3 (single isomer, unassigned) [Example 161] | greater than 10 fold
N#Cc1c(N)sc2c(F)ccc(-c3c4c(c5c(N6C7CCC6CNC7)nc(CO)nc5c3Cl)COC4)c12 (single isomer, unassigned; isomer 2) [Example 18, 2-Amino-4-[5-chloro-1-(3,8-diazabicyclo[3.2.1]octan-8-yl)-3-(hydroxymethyl)-7,9-dihydrofuro[3,4-f]quinazolin-6-yl]-7-fluoro-benzothiophene-3-carbonitrile, Isomer 2] | greater than 10 fold
CN1CC2CCC(C1)N2c1nc(OC[C@@]23CCCN2C[C@H](F)C3)nc2c(F)c(-c3cccc4sc(N)c(C#N)c34)c3c(c12)COC3 [Example 24] | greater than 10 fold
N#Cc1c(N)sc2c(F)cnc(-c3c4c(c5c(N6C7CCC6CN(CC6COC6)C7)nc(OC[C@@]67CCCN6C[C@H](F)C7)nc5c3F)COC4)c12 [Example 130, 2-Amino-7-fluoro-4-[5-fluoro-3-[[(2R,8S)-2-fluoro-1,2,3,5,6,7-hexahydropyrrolizin-8-yl]methoxy]-1-[3-(oxetan-3-ylmethyl)-3,8-diazabicyclo[3.2.1]octan-8-yl]-7,9-dihydrofuro[3,4-f]quinazolin-6-yl]thieno[3,2-c]pyridine-3-carbonitrile] | greater than 10 fold
C[C@@H](O)CN1CC2CC(C1)N2c1nc(OC[C@@]23CCCN2C[C@H](F)C3)nc2c(F)c(-c3c(F)ccc4sc(N)c(C#N)c34)c3c(c12)COC3 (single isomer, unassigned) [Example 158] | greater than 10 fold
CN1C[C@H](F)C[C@H]1COc1nc(N2C3CCC2CN(CCCO)C3)c2c3c(c(-c4c(F)ccc5sc(N)c(C#N)c45)c(F)c2n1)COC3 (single isomer, unassigned) [Example 140] | greater than 10 fold
N#Cc1c(N)sc2ccc(F)c(-c3c4c(c5c(N6C7CCC6CN(Cc6cnn(CCO)c6)C7)nc(OC[C@@]67CCCN6C[C@H](F)C7)nc5c3F)COC4)c12 [Example 110, 2-Amino-5-fluoro-4-[5-fluoro-3-[[(2R,8S)-2-fluoro-1,2,3,5,6,7-hexahydropyrrolizin-8-yl]methoxy]-1-[3-[[1-(2-hydroxyethyl)pyrazol-4-yl]methyl]-3,8-diazabicyclo[3.2.1]octan-8-yl]-7,9-dihydrofuro[3,4-f]quinazolin-6-yl]benzothiophene-3-carbonitrile] | greater than 10 fold
